{"source": "PubChem BioAssay AID248", "about": "(DTP/NCI, 2004)", "test_system": "L1210 leukemia ip in BDF1 mice, survival T/C", "assay": "NCI In Vivo Anticancer Drug Screen. Data for tumor model L1210 Leukemia (intraperitoneal) in B6D2F1 (BDF1) mice", "conditions": "T/C endpoint: mean survival time, higher T/C = longer survival", "key": {"[1]": {"conditions": "dose: 100.0 mg/kg/injection, schedule: Q04DX003 (ip), vehicle: Klucel (hydroxypropylcellulose) (HPC)"}, "[2]": {"conditions": "dose: 200.0 mg/kg/injection, schedule: Q04DX003 (ip), vehicle: Klucel (hydroxypropylcellulose) (HPC)"}, "[3]": {"conditions": "dose: 400.0 mg/kg/injection, schedule: Q04DX003 (ip), vehicle: Klucel (hydroxypropylcellulose) (HPC)"}, "[4]": {"conditions": "dose: 400.0 mg/kg/injection, schedule: Q01DX009 (ip), vehicle: Klucel (hydroxypropylcellulose) (HPC)"}}, "note": "The list does not hold the whole screen: it is rich in T/C values a quarter to a half above the control, in often repeated tests (any T/C) and in doses without a T/C. Further doses and runs are listed elsewhere. T/C is the treated group as % of the vehicle group. Some entries give survivors of the animals treated and no T/C: the source files T/C as zero there, which appears to mark a toxic dose or a test without result, not a measured value. Some survivor counts are full or nearly so, which does not show that the dose was tolerated: survival well below the control is almost never listed, so the zero probably covers shortened survival too. Counts of survivors are from the toxicity check (mostly the fifth day) where no day follows; animals may have died later. Schedules are NCI's codes, read here as Q, the interval in days (D) or hours (H), X, the number of doses. Some entries were tested several times; the values are given in rising order. Some schedule codes hold Z or #, which are not explained here. Where survival is the endpoint, the PubChem record calls one and a half times the control and up active, and a quarter to a half above the control has no call in these data; cut-offs in other NCI protocols can differ."}
{"smiles": "CNC(=O)c1ccc(NC(=O)Nc2ccc(C3=NCCCN3)cc2)cc1NC(=O)Nc1ccc(C2=NCCCN2)cc1", "values": [{"measurement": "T/C", "setting": "dose: 37.0 mg/kg/injection, schedule: Q01DX Z (ip), vehicle: carboxymethylcellulose (CMC)", "value": "138 % of control"}, {"measurement": "T/C", "setting": "dose: 75.0 mg/kg/injection, schedule: Q01DX Z (ip), vehicle: carboxymethylcellulose (CMC)", "value": "138 % of control"}, {"measurement": "survivor count", "setting": "dose: 150.0 mg/kg/injection, schedule: Q01DX Z (ip), vehicle: carboxymethylcellulose (CMC)", "value": "2 of 6"}, {"measurement": "survivor count", "setting": "dose: 200.0 mg/kg/injection, schedule: Q01DX Z (ip), vehicle: carboxymethylcellulose (CMC)", "value": "0 of 6"}, {"measurement": "survivor count", "setting": "dose: 300.0 mg/kg/injection, schedule: Q01DX Z (ip), vehicle: carboxymethylcellulose (CMC)", "value": "0 of 6"}]}
{"smiles": "CC[N+]1(CN2CCCCC2)CCCCC1", "values": [{"measurement": "survivor count", "setting": "[1]", "value": "0 of 6"}, {"measurement": "survivor count", "setting": "[2]", "value": "0 of 6"}, {"measurement": "survivor count", "setting": "[3]", "value": "0 of 6"}]}
{"smiles": "O=NN(CCCl)C(=O)NC1C2CC3CC(C2)CC1C3", "note": "(stereo not given)", "values": [{"measurement": "survivor count", "setting": "dose: 375.0 mg/kg/injection, schedule: Q01DX001 (ip), vehicle: other", "value": "6 of 10"}, {"measurement": "survivor count", "setting": "dose: 500.0 mg/kg/injection, schedule: Q01DX001 (ip), vehicle: other", "value": "8 of 10"}]}
{"smiles": "COc1c(O)c(O)cc2c[n+]3ccccc3c(C)c12", "values": [{"measurement": "survivor count", "setting": "dose: 100.0 mg/kg/injection, schedule: Q01DX009 (ip), vehicle: Klucel (hydroxypropylcellulose) (HPC)", "value": "0 of 3"}, {"measurement": "survivor count", "setting": "dose: 200.0 mg/kg/injection, schedule: Q01DX009 (ip), vehicle: Klucel (hydroxypropylcellulose) (HPC)", "value": "0 of 3"}]}
{"smiles": "NC1CCCCC1I", "note": "(stereo not given)", "values": [{"measurement": "survivor count", "setting": "dose: 300.0 mg/kg/injection, schedule: Q01DX001 (ip), vehicle: acetone", "value": "2 of 6"}]}
{"smiles": "CC1(C)CC(=O)C2C(C1)Nc1ccccc1NC2c1ccccc1[N+](=O)[O-]", "note": "(stereo not given)", "values": [{"measurement": "survivor count", "setting": "dose: 50.0 mg/kg/injection, schedule: Q04DX002 (ip), vehicle: Klucel (hydroxypropylcellulose) (HPC)", "value": "3 of 3"}, {"measurement": "T/C", "setting": "dose: 400.0 mg/kg/injection, schedule: Q04DX002 (ip), vehicle: Klucel (hydroxypropylcellulose) (HPC)", "value": "127 % of control"}]}
{"smiles": "CCCCCCCCCCCCCCCC[n+]1cccc(C(=O)NCO)c1", "values": [{"measurement": "survivor count", "setting": "dose: 400.0 mg/kg/injection, schedule: Q01DX001 (ip), vehicle: carboxymethylcellulose (CMC)", "value": "2 of 4"}]}
{"smiles": "CC(CC(C#CC(CC(C)CC(C)(C)C)N(C)C)N(C)C)CC(C)(C)C", "note": "(stereo not given)", "values": [{"measurement": "survivor count", "setting": "[4]", "value": "3 of 3"}]}
{"smiles": "CN1CCN(C(c2ccccc2)c2ccccc2)CC1", "values": [{"measurement": "survivor count", "setting": "[1]", "value": "2 of 4"}, {"measurement": "survivor count", "setting": "[2]", "value": "1 of 4"}, {"measurement": "survivor count", "setting": "[3]", "value": "0 of 4"}]}
{"smiles": "CNCC(C)(C)c1ccccc1", "values": [{"measurement": "survivor count", "setting": "dose: 200.0 mg/kg/injection, schedule: Q01DX009 (ip), vehicle: saline", "value": "0 of 6"}, {"measurement": "survivor count", "setting": "dose: 200.0 mg/kg/injection, schedule: Q04DX003 (ip), vehicle: saline", "value": "0 of 4"}, {"measurement": "survivor count", "setting": "dose: 400.0 mg/kg/injection, schedule: Q01DX009 (ip), vehicle: saline", "value": "0 of 6"}, {"measurement": "survivor count", "setting": "dose: 400.0 mg/kg/injection, schedule: Q04DX003 (ip), vehicle: saline", "value": "0 of 4"}]}
{"smiles": "CCOc1ccc(NC2CNC(=O)NC2=O)cc1", "note": "(stereo not given)", "values": [{"measurement": "survivor count", "setting": "dose: 100.0 mg/kg/injection, schedule: Q01DX Z (ip), vehicle: methylcellulose (MC)", "value": "5 of 6"}]}
{"smiles": "CC(C)(C)c1cc(/C=N/n2c(-c3ccccc3)nc3ccccc3c2=O)cc(C(C)(C)C)c1O", "values": [{"measurement": "survivor count", "setting": "dose: 200.0 mg/kg/injection, schedule: Q04DX002 (ip), vehicle: Klucel (hydroxypropylcellulose) (HPC)", "value": "3 of 3"}, {"measurement": "survivor count", "setting": "[4]", "value": "3 of 3 and 6 of 6"}]}
{"smiles": "COc1c(O)c2c(c3cc(C(=O)N4CCc5c4c(O)c(OC)c4[nH]c(C(=O)N6CC7CC78C6=CC(=O)c6[nH]cc(C)c68)cc54)[nH]c13)CCN2C(N)=O", "note": "(stereo not given)", "values": [{"measurement": "T/C", "setting": "dose: 25.0 micrograms/kg/injection, schedule: Q01DX009 (ip), vehicle: DMSO", "value": "132 % of control"}, {"measurement": "T/C", "setting": "dose: 50.0 micrograms/kg/injection, schedule: Q01DX009 (ip), vehicle: DMSO", "value": "125 % of control"}, {"measurement": "survivor count", "setting": "dose: 200.0 micrograms/kg/injection, schedule: Q01DX009 (ip), vehicle: DMSO", "value": "6 of 6"}]}
